Assay results published in patent publication US20110028504A1, “Formulation of radioprotective alpha beta unsaturated aryl sulfones” (ONCONOVA THERAPEUTICS, INC., priority 2005, published 2011).
At least one structure is not confirmed: it was looked up by name or label, or the drawing left a doubt.

What was measured:
HFL-1 cells = experiment: Radioprotection of cultured normal cells, colony count after ionizing radiation; format: cell-based, human; settings: 2.5 to 20 micromolar for 24 hrs before 10 Gy or 15 Gy ionizing radiation, colonies vs DMSO control
Protocol: HFL-1 cells, which are normal diploid lung fibroblasts, were plated into 24 well dishes at a cell density of 3000 cells per 10 mm^2 in DMEM completed with 10% fetal bovine serum and antibiotics. The test compounds listed in Table 28 were added to the cells 24 hours later in select concentrations from 2.5 to 20 micromolar, inclusive, using DMSO as a solvent. Control cells were treated with DMSO alone. The cells were exposed to the test compound or DMSO for 24 hrs. The cells were then irradiated with either 10 Gy (gray) or 15 Gy of ionizing radiation (IR) using a J.L. Shepherd Mark I, Model 30-1 Irradiator equipped with ^137cesium as a source.
After irradiation, the medium on the test and control cells was removed and replaced with fresh growth medium without the test compounds or DMSO. […] The number of colonies from each 100 mm^2 culture dish, which represents the number of surviving cells, was determined by staining the dishes as described below.
To visualize and count the colonies derived from the clonal outgrowth of individual radioprotected cells, the medium was removed and the plates were washed one time with room temperature phosphate buffered saline. […] The plates were air dried, the number of colonies from each plate were counted and the average from duplicate plates was determined. […]

C57 black mice = experiment: Protection of mice from radiation toxicity by pre-treatment; format: in vivo; settings: pre-treatment 18 and 6 hours before 8 Gy gamma radiation
Protocol: C57 black mice age 10-12 weeks (Taconic) were divided into two treatment groups of 10 mice each. One group, designated the “200×2” group, received intraperitoneal injections of 200 micrograms (E)-4-carboxystyryl-4-chlorobenzylsulfone dissolved in DMSO (a 10 mg/Kg dose, based on 20 g mice) 18 and 6 hours before irradiation with 8 Gy gamma radiation. The other group, designated “500×2,” received intraperitoneal injections of 500 micrograms (E)-4-carboxystyryl-4-chlorobenzylsulfone dissolved in DMSO (a 25 mg/Kg dose, based on 20 g mice) 18 and 6 hours before irradiation with 8 Gy gamma radiation. A control group of 16 animals received 8 Gy gamma radiation alone.

C57 B6/J mice = experiment: Radioprotective effect in mice when given after radiation exposure; format: in vivo; settings: “200 Post” group: 10 mg/Kg intraperitoneal 15 minutes after 8 Gy gamma radiation
mice = experiment: Animal efficacy studies, pre-treatment before lethal ionizing radiation; format: in vivo; settings: pre-treatment by the intravenous, sub-cutaneous or intraperitoneal route

SMILES: COc1ccccc1/C=C/S(=O)(=O)Cc1ccc([N+](=O)[O-])cc1 [Compound 3, (E)-2-Methoxystyryl-4-nitrobenzylsulfone]
- Activity (radioprotective activity, fold protection) (HFL-1 cells): −

SMILES: O=C(O)c1ccc(/C=C/S(=O)(=O)Cc2ccc(Cl)cc2)cc1 [Compound 13, (E)-4-Carboxystyryl-4-chlorobenzylsulfone]
- radiation toxicity in mice (C57 black mice): significantly reduced
- radiation-induced mortality (C57 B6/J mice): significant delay in radiation-induced mortality as compared with the control animals

SMILES: O=C([O-])c1ccc(/C=C/S(=O)(=O)Cc2ccc(Cl)cc2)cc1.[Na+] [ON.1210.Na, (E)-4-Carboxystyryl-4-chlorobenzylsulfone, Sodium Salt]
- protection from lethal radiation (mice): protection of mice from a lethal dose of ionizing radiation
